# Assay results as given in PubChem BioAssay AID2551 (National Center for Advancing Translational Sciences (NCATS), 2010).
# Protein sequences, listed by entry. Tags and fused reporters are not part of them. Lines headed by an entry give the natural chain unless they say otherwise; changes in a name come on top.
# UniProt P51450: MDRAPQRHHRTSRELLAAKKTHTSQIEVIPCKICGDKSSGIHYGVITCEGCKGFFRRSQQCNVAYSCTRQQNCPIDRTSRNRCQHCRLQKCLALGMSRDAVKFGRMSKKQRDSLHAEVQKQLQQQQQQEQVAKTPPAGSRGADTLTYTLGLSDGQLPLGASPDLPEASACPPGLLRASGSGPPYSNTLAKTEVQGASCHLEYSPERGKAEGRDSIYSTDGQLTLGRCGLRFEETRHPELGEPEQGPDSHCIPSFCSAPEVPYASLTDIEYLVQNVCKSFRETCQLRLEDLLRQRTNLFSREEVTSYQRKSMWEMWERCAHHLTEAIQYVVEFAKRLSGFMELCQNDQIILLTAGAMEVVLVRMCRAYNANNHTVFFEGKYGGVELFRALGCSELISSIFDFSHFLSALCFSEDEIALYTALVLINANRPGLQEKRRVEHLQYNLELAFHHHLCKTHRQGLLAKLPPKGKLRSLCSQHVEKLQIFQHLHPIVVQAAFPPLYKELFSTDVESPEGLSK
# Hit rate of the full screen: of about 310,000 compounds, about 17,000 (5.5%) were called active. This list was built around the results that the source calls inconclusive (neither active nor inactive); the mix of calls is not that of the screen. Calls follow the shape of the dose curve; as a rule, active = well fitted inhibition curve with a large enough effect; inconclusive = small, poorly fitted or top-dose-only effect, or effect the other way; inactive = no such curve, though single readings can be large or run the other way. Potencies beside an inconclusive call are fits to weak or partial responses and may not hold up.
# Biological target: Nuclear receptor ROR-gamma (Mus musculus) (UniProt P51450)
# Experiment: qHTS for inhibitors of ROR gamma transcriptional activity; also: nearly all actives have a fitted effect of over 60% in size
# Details: Drosophila S2 Gal4-RORgamma UAS-luciferase reporter, 20 h; activity change, negative = inhibition: at 53.6 µM (top of the series)
# Method in brief: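 Compounds are pin-transferred onto Drosophila Schneider cells expressing a copper-inducible Gal4–ROR gamma transactivation domain fusion. After 1 hr, copper sulfate is added to 700 uM final; luciferase is read 20 hr later.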
# % is scaled to controls: 0 for no effect and ±100 for the full control effect; potency is read from the fitted curve at half-maximal effect.
SMILES,Potency,"activity change, negative = inhibition"
COc1cc2c3cc1Oc1c(OC)c(OC)cc4c1[C@@H](Cc1ccc(OC(=O)c5ccc([N+](=O)[O-])cc5)c(c1)Oc1ccc(cc1)C[C@@H]3N(C)CC2)N(C)CC4,"inconclusive: 35.5 µM [inhibitor, single point]",
CC(C)CCn1c(N2CCN(c3cccc(Cl)c3)CC2)nc2c1c(=O)[nH]c(=O)n2C,"inconclusive: 0.005 µM [activator, full curve, poor fit]",
COc1ccc(N=Cc2c(O)n(CC3CCCO3)c(=O)[nH]c2=O)cc1 (configuration not stated),,inactive: 19.2%
O=C1NC(=O)C(=Cc2cc(Cl)ccc2OCc2ccc(C(=O)O)cc2)C(=O)N1,"inconclusive: 22.4 µM [activator, single point]",
COC1=CC2C3Cc4ccc(OC)c(O)c4[C@]2(CCN3C)CC1=O (some centres not stated),,inactive: 6.78%
CN1Cc2ccccc2[C@@H]2c3cccc4[nH]cc(c34)C[C@H]21,"inconclusive: 11.2 µM [inhibitor, full curve, poor fit]",
CCCCC[C@@H](/C=C/C=C\CCCCCCCC(=O)O)OO,,inactive: -5.08%
N#CC(C#N)=Cc1ccc(N2CCCC2)cc1,"inconclusive: 15.8 µM [activator, single point]",
N[C@@]1(C(=O)O)CC[C@H](C(=O)O)C1,"inconclusive: 31.6 µM [activator, single point]",
CCN(CC)P(=S)(c1c(C)nc2ccccn12)c1c(C)nc2ccccn12,"inconclusive: 7.94 µM [inhibitor, partial curve, poor fit]",
O=C(NN1C(=O)C2C3C=CC(C4CC34)C2C1=O)c1cccc(Cl)c1 (configuration not stated),"inconclusive: 22.4 µM [inhibitor, single point]",
O=C(CCN1CCN(CCO)CC1)N1c2ccccc2Sc2ccc(C(F)(F)F)cc21,inactive,
CN(C)C1C(=O)C(C(N)=O)=C(O)[C@@]2(O)C(=O)C3=C(O)c4c(O)ccc(Cl)c4[C@](C)(O)C3CC12 (some centres not stated),,inactive: 4.89%
CC(C)=CCCC1(C)C=Cc2c(O)c3c(c(CC=C(C)C)c2O1)OC12C(CC4CC1C(C)(C)OC2(C/C=C(/C)C(=O)O)C4O)C3=O (configuration not stated),,inactive: -9.1%
Cc1ccccc1-n1c(-c2ccoc2)nc2ccccc2c1=O,"inconclusive: 31.6 µM [activator, single point]",
C/C(CC(c1ccccc1)c1c(O)c2ccccc2oc1=O)=N\Nc1ccc([N+](=O)[O-])cc1[N+](=O)[O-] (configuration not stated),"inconclusive: 31.6 µM [activator, single point]",
N#Cc1ccccc1Cn1cc(C(=O)c2ccccc2F)c2ccccc21,,inactive: 6.42%
Cc1c(C(=O)N2CCC3(CC2)OCCO3)oc2ccc(S(=O)(=O)N3CCCCC3)cc12,"inconclusive: 17.8 µM [activator, single point]",
CCCCC/C=C\C/C=C\C/C=C\C/C=C\CCCC(=O)Nc1ccc(O)cc1C,"inconclusive: 2.51 µM [inhibitor, partial curve, poor fit]",
CCCCCCn1c(O)c(C=Nc2c(C)n(C)n(-c3ccccc3)c2=O)c(=O)[nH]c1=O,,inactive: -24.7%
CCOc1ccc(OCC)c(NC(=O)CN2CCN(c3ccc(C)cc3C)CC2)c1,"inconclusive: 17.8 µM [activator, single point]",
CC(=O)O[C@H]1C(=O)[C@@]2(C)C([C@H](OC(=O)c3ccccc3)[C@]3(O)C[C@H](OC(=O)[C@H](O)[C@@H](NC(=O)Cc4ccccc4)c4ccccc4)C(C)=C1C3(C)C)[C@]1(OC(C)=O)CO[C@@H]1C[C@@H]2O (some centres not stated),"inconclusive: 22.4 µM [inhibitor, single point]",
CCc1ccc(CNCCc2ccc(F)cc2)cc1,,inactive: -62.5%

SMILES,Potency,"activity change, negative = inhibition"
O=C(Nc1cccc(Cl)c1)c1c(O)c2c(n(Cc3ccccc3)c1=O)CCCC2,,inactive: -22.3%
CCCCn1c(=O)c(C(=O)NCCc2ccccc2)c(O)c2ccccc21,"inconclusive: 15.8 µM [inhibitor, single point]",
COC(=O)/C(C)=C\CC12OC(C)(C)C3CC(C=C4C(=O)c5c(OC)c6c(c(CC=C(C)C)c5OC431)OC(C)(CCC=C(C)C)C=C6)C2=O (configuration not stated),"inconclusive: 35.5 µM [inhibitor, single point]",
OCCN1C2CCC1CC(O)(c1ccc(F)cc1)C2 (configuration not stated),,inactive: -0.739%
COc1ccc2c(c1)CC1(CN2C)C(=O)NC(=O)N(CCc2ccccc2)C1=O (configuration not stated),,inactive: 28.3%
COc1ccc(C(=O)OCC(=O)Nc2ccc([N+](=O)[O-])cc2OC)c(O)c1,"inconclusive: 6.31 µM [inhibitor, single point]",
CCC12CCCN3CCC4(c5ccc(OC)c(O)c5N(C(C)=O)C4CC1)C32 (configuration not stated),,inactive: 33.5%
CCCCn1c(NC(=O)c2ccco2)c(C(=O)OCC)c2nc3ccccc3nc21,"inconclusive: 28.2 µM [inhibitor, single point]",
Cc1cccc(CCNCc2cc3ccc(C)cc3[nH]c2=O)c1,"inconclusive: 15.8 µM [activator, single point]",
CN1CCN(c2cccc3c2C(=O)c2ccccc2C3=O)CC1,"inconclusive: 10 µM [inhibitor, partial curve]",
Cc1cccc(N2CCc3c2nc2ccccc2c3N)c1,"inconclusive: 35.5 µM [inhibitor, single point]",
Cc1[nH]n(-c2ccccc2)c(=O)c1C(c1ccc([N+](=O)[O-])cc1)c1c(C)[nH]n(-c2ccccc2)c1=O,,inactive: 1.95%
COc1cc(/C=C2\C(=O)NC(=O)N(c3ccccc3)C2=O)cc(OC)c1OC,"inconclusive: 20 µM [activator, single point]",
Cn1c(=O)oc2cc(S(=O)(=O)N3CCC(C(=O)Nc4ccc(OC(F)(F)F)cc4)CC3)ccc21,"inconclusive: 2.24 µM [inhibitor, partial curve, poor fit]",
O=C(Oc1ccc(Cl)c2cccnc12)N1CCCCCC1,"inconclusive: 31.6 µM [activator, single point]",
COc1cccc(C(=O)C2CCCN(Cc3ccccn3)C2)c1 (configuration not stated),active: 3.55 µM,
Cc1ccc(/C=C2\C(=O)NC(=S)N(c3ccc(F)cc3)C2=O)o1,"inconclusive: 10 µM [inhibitor, single point]",
CCN1CCN(c2nc3ccccc3s2)CC1,,inactive: -33.9%
COc1ccc([N+](=O)[O-])cc1NC(=O)COC(=O)c1ccccc1C(=O)c1ccccc1,"inconclusive: 6.31 µM [activator, partial curve]",
COc1cc(/C=C/[N+](=O)[O-])ccc1O,active: 4.47 µM,
O=C(c1ccccc1F)c1cn(Cc2ccccc2)c2ccccc12,"inconclusive: 35.5 µM [activator, single point]",
CCC(C)n1c(O)c(C=Nc2cccc(C(F)(F)F)c2)c(=O)[nH]c1=S (configuration not stated),"inconclusive: 17.8 µM [inhibitor, single point]",
Cc1ccc(Cl)cc1N1CCN(CCN)CC1,"inconclusive: 12.6 µM [inhibitor, partial curve]",

SMILES,Potency,"activity change, negative = inhibition"
C[C@H]1[C@H](OC(=O)CCC(=O)NCc2ccc(C(=O)O)cc2)O[C@@H]2O[C@@]3(C)CC[C@H]4[C@H](C)CC[C@@H]1C24OO3,,inactive: -5.38%
CCC(=NCCc1c[nH]c2ccccc12)c1c(O)n(-c2ccc(C)cc2)c(=O)[nH]c1=O,"inconclusive: 7.08 µM [activator, partial curve]",
O=[N+]([O-])c1cc(O)c(O)c([N+](=O)[O-])c1,active: 22.4 µM,
O=c1[nH]c2ccccc2c(=O)n1-c1cccc(Cl)c1,,inactive: -1.55%
Fc1ccc(CN2CCN(c3ccc(Cl)cc3)CC2)cc1,,inactive: 8.73%
O=c1nc(/C=C/c2ccc(Cl)cc2Cl)cc(C(F)(F)F)[nH]1,"inconclusive: 3.16 µM [inhibitor, partial curve, poor fit]",
CCCCC(CC)COCCCN=Cc1c(O)[nH]c(=S)[nH]c1=O (configuration not stated),"inconclusive: 3.16 µM [activator, single point]",
CN[C@@H]1C[C@@H](c2ccc(Cl)c(Cl)c2)c2ccccc21,inactive,
CCC(C)NC(=O)c1c(N)n(Cc2ccc3c(c2)OCO3)c2nc3ccccc3nc12 (configuration not stated),"inconclusive: 17.8 µM [inhibitor, single point]",
O=P(O)(O)Oc1ccccc1P(=O)(c1ccccc1)c1ccccc1,,inactive: 42.4%
O=C(N/N=C/c1ccc(C(F)(F)F)cc1)c1ccncc1,"inconclusive: 10 µM [activator, partial curve]",
N#CC1=C(N)Oc2c(c(=O)oc3ccccc23)C1c1ccc(OC(=O)N2CCOCC2)cc1 (configuration not stated),"inconclusive: 12.6 µM [activator, partial curve]",
CC1CN=C(Nc2cccc3ccccc23)S1 (configuration not stated),"inconclusive: 35.5 µM [inhibitor, single point]",
O=C(c1ccc2c(c1)ncn2C1CCCCC1)N1CCC2(CC1)OCCO2,,inactive: 23.7%
CCCCCCCCCCCCCCCCOC[C@@H](COP(=O)([O-])OCC[N+](C)(C)C)OC(C)=O,,inactive: 17.2%
Cc1nn(Cc2ccccc2Cl)c(C)c1C(=O)OCC(=O)N1CC(C)OC(C)C1 (configuration not stated),"inconclusive: 35.5 µM [activator, single point]",
CCN(CCCNS(=O)(=O)c1ccc2c(c1)oc(=O)n2C)c1cccc(C)c1,"inconclusive: 15.8 µM [activator, single point]",
CCCCCCCSc1cc(OC)c(CCNC)cc1OC,"inconclusive: 20 µM [inhibitor, single point]",
CN(C)CCN(C)CCc1ccc(Cl)c(Cl)c1,,inactive: -17.3%
O=C(O)c1ccc(-c2ccc3cc(C45CC6CC(CC(C6)C4)C5)c(O)cc3c2)cc1,"inconclusive: 25.1 µM [inhibitor, single point]",
N#CC(C#N)=Cc1ccc(-c2ccccc2F)o1,"inconclusive: 12.6 µM [activator, partial curve]",

# Nothing new here: entries from further up.
SMILES,Potency,"activity change, negative = inhibition"
CCC12CCCN3CCC4(c5ccc(OC)c(O)c5N(C(C)=O)C4CC1)C32 (configuration not stated),,inactive: 33.5%
CCCCn1c(NC(=O)c2ccco2)c(C(=O)OCC)c2nc3ccccc3nc21,"inconclusive: 28.2 µM [inhibitor, single point]",
Cc1cccc(CCNCc2cc3ccc(C)cc3[nH]c2=O)c1,"inconclusive: 15.8 µM [activator, single point]",
CN1CCN(c2cccc3c2C(=O)c2ccccc2C3=O)CC1,"inconclusive: 10 µM [inhibitor, partial curve]",
